Some of the results follow. Repeats are few or missing, and single values can be far off.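 Imaging used 1,536-well plates; nuclei positive for cleaved PARP by antibody were divided by total DNA-stained nuclei to yield the apoptosis fraction. Doses for screening kept most cells viable, and cell lines differ markedly in resting and induced cleaved-PARP levels.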
Key:
Assay in all cases: cleaved PARP positive nuclei fraction relative to DMSO control; melanoma cells; higher = more apoptosis
Conditions in all cases: library dose: low library concentration; 72 h
[1] = tested on: 501Mel
[2] = tested on: A101D
[3] = tested on: A2058
[4] = tested on: C32
[5] = tested on: CBRC008 (line from a melanoma biopsy)
[6] = tested on: CBRC014 (line from a melanoma biopsy)
[7] = tested on: CBRC016 (line from a melanoma biopsy)
[8] = tested on: CBRC017 (line from a melanoma biopsy)

Compound | cleaved PARP positive nuclei fraction [1] | cleaved PARP positive nuclei fraction [2] | cleaved PARP positive nuclei fraction [3] | cleaved PARP positive nuclei fraction [4] | cleaved PARP positive nuclei fraction [5] | cleaved PARP positive nuclei fraction [6] | cleaved PARP positive nuclei fraction [7] | cleaved PARP positive nuclei fraction [8]
Cn1c(=O)n(-c2ccc(C(C)(C)C#N)cc2)c2c3cc(-c4cnc5ccccc5c4)ccc3ncc21 + C/C(O)=C(\C#N)C(=O)Nc1cc(Br)ccc1Br [LFM-A13] (first compound 0.004 µM, partner dose 2 µM) | 57.9% | 23.7% | 89.8% | 91.3% | 56.3% | 79.6% | 34.2% | 95.3%
Cn1c(=O)n(-c2ccc(C(C)(C)C#N)cc2)c2c3cc(-c4cnc5ccccc5c4)ccc3ncc21 + O=C(Oc1ccc([N+](=O)[O-])cc1)N1CCC(C(O)(c2ccc3c(c2)OCO3)c2ccc3c(c2)OCO3)CC1 [JZL184] (first compound 0.004 µM, partner dose 1 µM) | 87.3% | 11.4% | 96.3% | 241% | 84.6% | 98.8% | 41.3% | 84.5%
CC[C@]1(O)C[C@H]2CN(CCc3c([nH]c4ccccc34)[C@@](C(=O)OC)(c3cc4c(cc3OC)N(C=O)[C@H]3[C@@](O)(C(=O)OC)[C@H](OC(C)=O)[C@]5(CC)C=CCN6CC[C@]43[C@@H]65)C2)C1 [vincristine] + O=C(Oc1ccc([N+](=O)[O-])cc1)N1CCC(C(O)(c2ccc3c(c2)OCO3)c2ccc3c(c2)OCO3)CC1 [JZL184] (first compound 0.0001 µM, partner dose 1 µM) | 320% | 28.8% | 1410% | 137% | 48.4% | 89.7% | 85.8% | 84.7%
Cn1c(=O)n(-c2ccc(C(C)(C)C#N)cc2)c2c3cc(-c4cnc5ccccc5c4)ccc3ncc21 + Cc1cc(SCc2sc(-c3ccc(C(F)(F)F)c(F)c3)nc2C)ccc1OCC(=O)O [GW0742] (first compound 0.004 µM, partner dose 2 µM) | 64.2% | 14.2% | 120% | 160% | 133% | 178% | 38.7% | 70.5%
C[C@]12O[C@H](C[C@]1(O)CO)n1c3ccccc3c3c4c(c5c6ccccc6n2c5c31)CNC4=O [Lestaurtinib] + COC(=O)c1sccc1S(=O)(=O)Nc1ccc(Nc2ccccc2)cc1OC [GSK0660] (first compound 0.004 µM, partner dose 1 µM) | 76.9% | 145% | 65.3% | 67% | 143% | 95.7% | 145% | 100%
CS(=O)(=O)c1ccc(C(=O)Nc2ccc(Cl)c(-c3ccccn3)c2)c(Cl)c1 [vismodegib] + Cc1cc(SCc2sc(-c3ccc(C(F)(F)F)c(F)c3)nc2C)ccc1OCC(=O)O [GW0742] (first compound 1 µM, partner dose 2 µM) | 73.8% | 14% | 77.9% | 45.6% | 113% | 43.7% | 132% | 105%
C[C@]12O[C@H](C[C@]1(O)CO)n1c3ccccc3c3c4c(c5c6ccccc6n2c5c31)CNC4=O [Lestaurtinib] + Oc1cc(-c2nc(-c3ccccc3)[nH]c2-c2ccncc2)ccc1Cl [L779450] (first compound 0.004 µM, partner dose 0.2 µM) | 127% | 25.3% | 107% | 48% | 123% | 94.7% | 96.6% | 76%
C=C(c1ccc(C(=O)O)cc1)c1cc2c(cc1C)C(C)(C)CCC2(C)C [Bexarotene] + C/C(O)=C(\C#N)C(=O)Nc1cc(Br)ccc1Br [LFM-A13] (first compound 2 µM, partner dose 2 µM) | 65.7% | 24.7% | 75.6% | 82.5% | 524% | 131% | 120% | 289%
C[C@]1(O)C[C@@H](c2nc(-c3ccc4ccc(-c5ccccc5)nc4c3)c3c(N)nccn32)C1 + C/C(O)=C(\C#N)C(=O)Nc1cc(Br)ccc1Br [LFM-A13] (first compound 0.4 µM, partner dose 2 µM) | 100% | 70.7% | 165% | 40.5% | 361% | 118% | 40.6% | 95.9%
N.N.[Cl][Pt][Cl] [cisplatin] + COc1ccc(-c2ccc3c(N4CCOCC4)nc(N4C[C@@H](C)O[C@@H](C)C4)nc3n2)cc1CO [KU0063794] (first compound 1.6 µM, partner dose 0.02 µM) | 57.9% | 30.9% | 104% | 74.1% | 347% | 96.2% | 164% | 364%
COc1ccc(C2=N[C@@H](c3ccc(Cl)cc3)[C@@H](c3ccc(Cl)cc3)N2C(=O)N2CCNC(=O)C2)c(OC(C)C)c1 [Nutlin-3] + O=C(Oc1ccc([N+](=O)[O-])cc1)N1CCC(C(O)(c2ccc3c(c2)OCO3)c2ccc3c(c2)OCO3)CC1 [JZL184] (first compound 0.1 µM, partner dose 1 µM) | 150% | 47.3% | 106% | 47.6% | 91.5% | 99.3% | 29.4% | 111%
Nc1nc(F)nc2c1ncn2[C@@H]1O[C@H](CO)[C@@H](O)[C@@H]1O [fludarabine] + O=C(Oc1ccc([N+](=O)[O-])cc1)N1CCC(C(O)(c2ccc3c(c2)OCO3)c2ccc3c(c2)OCO3)CC1 [JZL184] (first compound 0.2 µM, partner dose 1 µM) | 2250% | 9.97% | 181% | 32.8% | 315% | 93.2% | 122% | 90.4%
N.N.[Cl][Pt][Cl] [cisplatin] + O=C(Nc1ccccc1)c1cc([N+](=O)[O-])ccc1Cl [GW9662] (first compound 1.6 µM, partner dose 2 µM) | 165% | 28.5% | 108% | 38.1% | 161% | 102% | 204% | 103%
Nc1ncn([C@H]2C[C@H](O)[C@@H](CO)O2)c(=O)n1 [decitabine] + O=C(Oc1ccc([N+](=O)[O-])cc1)N1CCC(C(O)(c2ccc3c(c2)OCO3)c2ccc3c(c2)OCO3)CC1 [JZL184] (first compound 0.1 µM, partner dose 1 µM) | 221% | 28.2% | 124% | 161% | 126% | 112% | 62.3% | 107%
N.N.[Cl][Pt][Cl] [cisplatin] + Cn1cc(/C=C2\C(=O)Nc3cccnc32)c2ccccc21 [GW441756] (first compound 1.6 µM, partner dose 0.4 µM) | 39.2% | 35.8% | 137% | 144% | 122% | 96.6% | 140% | 251%
C[C@]12O[C@H](C[C@]1(O)CO)n1c3ccccc3c3c4c(c5c6ccccc6n2c5c31)CNC4=O [Lestaurtinib] + COc1ccc(-c2ccc3c(N4CCOCC4)nc(N4C[C@@H](C)O[C@@H](C)C4)nc3n2)cc1CO [KU0063794] (first compound 0.004 µM, partner dose 0.02 µM) | 68.4% | 14.8% | 168% | 292% | 111% | 82.5% | 54.5% | 78%
Cc1cn(-c2cc(NC(=O)c3ccc(C)c(Nc4nccc(-c5cccnc5)n4)c3)cc(C(F)(F)F)c2)cn1 [nilotinib] + O=C(Oc1ccc([N+](=O)[O-])cc1)N1CCC(C(O)(c2ccc3c(c2)OCO3)c2ccc3c(c2)OCO3)CC1 [JZL184] (first compound 0.2 µM, partner dose 1 µM) | 67.5% | 8.42% | 103% | 37.1% | 68.8% | 108% | 81.7% | 121%
N.N.[Cl][Pt][Cl] [cisplatin] + O=c1cc(-c2cccc3c2Sc2ccccc2S3)oc(N2CCOCC2)c1 [KU55933] (first compound 1.6 µM, partner dose 1 µM) | 73% | 30.2% | 44.7% | 118% | 136% | 88.6% | 62.1% | 85.3%
CC(C)C[C@H](NC(=O)[C@H](Cc1ccccc1)NC(=O)c1cnccn1)B(O)O [Bortezomib] + O=C(Oc1ccc([N+](=O)[O-])cc1)N1CCC(C(O)(c2ccc3c(c2)OCO3)c2ccc3c(c2)OCO3)CC1 [JZL184] (first compound 0.001 µM, partner dose 1 µM) | 199% | 400% | 97.6% | 167% | 3610% | 636% | 405% | 312%
N.N.[Cl][Pt][Cl] [cisplatin] + CCCCCCCCCCCC1=C(O)C(=O)C=C(O)C1=O [Embelin] (first compound 1.6 µM, partner dose 1.2 µM) | 74.3% | 55.9% | 34.1% | 63.6% | 75% | 116% | 82.1% | 235%
Cn1cc(C2=C(c3cn(C4CCN(Cc5ccccn5)CC4)c4ccccc34)C(=O)NC2=O)c2ccccc21 [Enzastaurin] + Oc1nc(-c2ccc(C(F)(F)F)cc2)nc2c1CSCC2 [XAV939] (first compound 0.8 µM, partner dose 2 µM) | 110% | 5.39% | 44.2% | 76.7% | 79.6% | 101% | 37.7% | 93.5%
CC(=O)O[C@@]12CO[C@@H]1C[C@H](O)[C@@]1(C)C(=O)[C@H](O)C3=C(C)[C@@H](OC(=O)[C@H](O)[C@@H](NC(=O)OC(C)(C)C)c4ccccc4)C[C@@](O)([C@@H](OC(=O)c4ccccc4)[C@H]21)C3(C)C [Docetaxel] + O=C(Oc1ccc([N+](=O)[O-])cc1)N1CCC(C(O)(c2ccc3c(c2)OCO3)c2ccc3c(c2)OCO3)CC1 [JZL184] (first compound 0.0001 µM, partner dose 1 µM) | 184% | 54.7% | 5940% | 418% | 349% | 221% | 214% | 132%
C[C@]12O[C@H](C[C@]1(O)CO)n1c3ccccc3c3c4c(c5c6ccccc6n2c5c31)CNC4=O [Lestaurtinib] + Cc1cc(SCc2sc(-c3ccc(C(F)(F)F)c(F)c3)nc2C)ccc1OCC(=O)O [GW0742] (first compound 0.004 µM, partner dose 2 µM) | 174% | 13.9% | 31.1% | 86.2% | 144% | 80.9% | 154% | 148%

Single records (already shown).
C[C@]12O[C@H](C[C@]1(O)CO)n1c3ccccc3c3c4c(c5c6ccccc6n2c5c31)CNC4=O [Lestaurtinib] + Oc1cc(-c2nc(-c3ccccc3)[nH]c2-c2ccncc2)ccc1Cl [L779450] (first compound 0.004 µM, partner dose 0.2 µM) in the list: cleaved PARP positive nuclei fraction [1]: 127%; cleaved PARP positive nuclei fraction [2]: 25.3%; cleaved PARP positive nuclei fraction [3]: 107%; cleaved PARP positive nuclei fraction [4]: 48%; cleaved PARP positive nuclei fraction [5]: 123%; cleaved PARP positive nuclei fraction [6]: 94.7%; cleaved PARP positive nuclei fraction [7]: 96.6%; cleaved PARP positive nuclei fraction [8]: 76%
C[C@]12O[C@H](C[C@]1(O)CO)n1c3ccccc3c3c4c(c5c6ccccc6n2c5c31)CNC4=O [Lestaurtinib] + COC(=O)c1sccc1S(=O)(=O)Nc1ccc(Nc2ccccc2)cc1OC [GSK0660] (first compound 0.004 µM, partner dose 1 µM) in the list: cleaved PARP positive nuclei fraction [1]: 76.9%; cleaved PARP positive nuclei fraction [2]: 145%; cleaved PARP positive nuclei fraction [3]: 65.3%; cleaved PARP positive nuclei fraction [4]: 67%; cleaved PARP positive nuclei fraction [5]: 143%; cleaved PARP positive nuclei fraction [6]: 95.7%; cleaved PARP positive nuclei fraction [7]: 145%; cleaved PARP positive nuclei fraction [8]: 100%
